# ± gives the standard deviation of the averaged measurements. Only a part is listed here, and it is no random draw.
# Protein sequences, listed by entry. Tags and fused reporters are not part of them. Lines headed by an entry give the natural chain unless they say otherwise; changes in a name come on top.
# UniProt Q9NWL6: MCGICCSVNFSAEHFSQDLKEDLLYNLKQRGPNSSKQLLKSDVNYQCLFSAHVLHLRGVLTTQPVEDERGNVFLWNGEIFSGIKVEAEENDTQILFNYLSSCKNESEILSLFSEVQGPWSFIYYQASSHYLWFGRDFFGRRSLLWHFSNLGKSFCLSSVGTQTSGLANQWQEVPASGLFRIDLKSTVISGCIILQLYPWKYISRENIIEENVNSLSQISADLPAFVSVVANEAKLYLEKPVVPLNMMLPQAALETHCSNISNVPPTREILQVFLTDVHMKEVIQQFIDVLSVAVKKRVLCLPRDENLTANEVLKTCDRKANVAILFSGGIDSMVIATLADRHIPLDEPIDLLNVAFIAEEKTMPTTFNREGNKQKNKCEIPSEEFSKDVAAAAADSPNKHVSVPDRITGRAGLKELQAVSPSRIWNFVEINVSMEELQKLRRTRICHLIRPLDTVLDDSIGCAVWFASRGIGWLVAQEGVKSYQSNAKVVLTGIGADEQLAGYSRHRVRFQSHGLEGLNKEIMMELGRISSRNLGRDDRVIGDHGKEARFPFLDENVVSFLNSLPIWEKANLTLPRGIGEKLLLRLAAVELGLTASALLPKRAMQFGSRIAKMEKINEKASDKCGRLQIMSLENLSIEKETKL
# UniProt Q9H0E3: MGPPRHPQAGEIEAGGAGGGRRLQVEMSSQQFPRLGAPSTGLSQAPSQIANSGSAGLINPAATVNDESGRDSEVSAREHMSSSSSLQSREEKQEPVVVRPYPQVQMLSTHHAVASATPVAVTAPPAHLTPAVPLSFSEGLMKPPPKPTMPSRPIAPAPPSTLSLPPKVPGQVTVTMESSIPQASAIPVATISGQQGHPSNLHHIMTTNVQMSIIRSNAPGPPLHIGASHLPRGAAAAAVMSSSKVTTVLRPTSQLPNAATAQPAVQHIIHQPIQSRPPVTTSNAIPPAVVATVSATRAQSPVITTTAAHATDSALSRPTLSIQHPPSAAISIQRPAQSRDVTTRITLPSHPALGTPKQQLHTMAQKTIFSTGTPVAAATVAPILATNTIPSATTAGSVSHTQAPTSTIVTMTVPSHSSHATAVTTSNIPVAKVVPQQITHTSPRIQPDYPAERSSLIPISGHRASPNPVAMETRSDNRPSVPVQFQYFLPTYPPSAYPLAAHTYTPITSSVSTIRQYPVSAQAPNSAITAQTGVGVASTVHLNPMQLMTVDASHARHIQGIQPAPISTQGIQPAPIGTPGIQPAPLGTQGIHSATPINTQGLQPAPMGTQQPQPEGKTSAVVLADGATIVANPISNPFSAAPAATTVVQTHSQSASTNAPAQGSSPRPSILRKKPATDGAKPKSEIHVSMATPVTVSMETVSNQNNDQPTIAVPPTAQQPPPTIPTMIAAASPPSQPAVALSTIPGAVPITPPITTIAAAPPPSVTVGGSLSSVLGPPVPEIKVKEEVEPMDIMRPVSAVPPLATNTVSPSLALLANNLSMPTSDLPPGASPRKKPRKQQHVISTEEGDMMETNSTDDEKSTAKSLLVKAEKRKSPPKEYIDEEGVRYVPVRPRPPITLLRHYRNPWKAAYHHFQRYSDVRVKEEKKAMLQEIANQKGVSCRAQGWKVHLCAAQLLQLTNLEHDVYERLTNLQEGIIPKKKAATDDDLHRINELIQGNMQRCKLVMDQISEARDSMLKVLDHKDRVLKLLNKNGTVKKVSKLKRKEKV
# UniProt Q16822, whole entry: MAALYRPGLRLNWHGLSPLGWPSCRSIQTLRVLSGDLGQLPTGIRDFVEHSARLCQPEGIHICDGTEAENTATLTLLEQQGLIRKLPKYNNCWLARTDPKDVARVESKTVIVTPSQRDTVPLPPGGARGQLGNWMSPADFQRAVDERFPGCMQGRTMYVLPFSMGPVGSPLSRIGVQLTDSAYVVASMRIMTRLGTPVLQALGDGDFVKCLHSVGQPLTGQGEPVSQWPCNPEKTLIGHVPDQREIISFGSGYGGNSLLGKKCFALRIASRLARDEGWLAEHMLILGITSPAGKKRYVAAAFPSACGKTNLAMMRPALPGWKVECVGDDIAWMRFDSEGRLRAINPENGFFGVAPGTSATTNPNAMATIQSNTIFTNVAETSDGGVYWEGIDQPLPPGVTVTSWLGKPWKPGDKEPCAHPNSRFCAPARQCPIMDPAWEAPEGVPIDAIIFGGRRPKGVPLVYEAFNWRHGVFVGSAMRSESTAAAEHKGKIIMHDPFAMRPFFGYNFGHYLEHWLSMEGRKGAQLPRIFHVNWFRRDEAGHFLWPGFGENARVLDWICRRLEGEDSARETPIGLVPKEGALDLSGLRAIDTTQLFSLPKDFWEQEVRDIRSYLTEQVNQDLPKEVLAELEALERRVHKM
# UniProt Q8NEW0: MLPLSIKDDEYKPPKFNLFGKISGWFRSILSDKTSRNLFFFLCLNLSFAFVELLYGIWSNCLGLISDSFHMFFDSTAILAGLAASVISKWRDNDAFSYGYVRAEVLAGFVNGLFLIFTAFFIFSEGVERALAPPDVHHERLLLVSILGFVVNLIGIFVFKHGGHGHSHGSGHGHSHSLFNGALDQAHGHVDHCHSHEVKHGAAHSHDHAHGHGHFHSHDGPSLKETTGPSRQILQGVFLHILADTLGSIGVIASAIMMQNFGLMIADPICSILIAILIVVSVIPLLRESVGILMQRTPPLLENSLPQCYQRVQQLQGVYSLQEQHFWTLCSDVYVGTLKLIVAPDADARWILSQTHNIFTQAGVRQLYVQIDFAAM
# UniProt Q12968: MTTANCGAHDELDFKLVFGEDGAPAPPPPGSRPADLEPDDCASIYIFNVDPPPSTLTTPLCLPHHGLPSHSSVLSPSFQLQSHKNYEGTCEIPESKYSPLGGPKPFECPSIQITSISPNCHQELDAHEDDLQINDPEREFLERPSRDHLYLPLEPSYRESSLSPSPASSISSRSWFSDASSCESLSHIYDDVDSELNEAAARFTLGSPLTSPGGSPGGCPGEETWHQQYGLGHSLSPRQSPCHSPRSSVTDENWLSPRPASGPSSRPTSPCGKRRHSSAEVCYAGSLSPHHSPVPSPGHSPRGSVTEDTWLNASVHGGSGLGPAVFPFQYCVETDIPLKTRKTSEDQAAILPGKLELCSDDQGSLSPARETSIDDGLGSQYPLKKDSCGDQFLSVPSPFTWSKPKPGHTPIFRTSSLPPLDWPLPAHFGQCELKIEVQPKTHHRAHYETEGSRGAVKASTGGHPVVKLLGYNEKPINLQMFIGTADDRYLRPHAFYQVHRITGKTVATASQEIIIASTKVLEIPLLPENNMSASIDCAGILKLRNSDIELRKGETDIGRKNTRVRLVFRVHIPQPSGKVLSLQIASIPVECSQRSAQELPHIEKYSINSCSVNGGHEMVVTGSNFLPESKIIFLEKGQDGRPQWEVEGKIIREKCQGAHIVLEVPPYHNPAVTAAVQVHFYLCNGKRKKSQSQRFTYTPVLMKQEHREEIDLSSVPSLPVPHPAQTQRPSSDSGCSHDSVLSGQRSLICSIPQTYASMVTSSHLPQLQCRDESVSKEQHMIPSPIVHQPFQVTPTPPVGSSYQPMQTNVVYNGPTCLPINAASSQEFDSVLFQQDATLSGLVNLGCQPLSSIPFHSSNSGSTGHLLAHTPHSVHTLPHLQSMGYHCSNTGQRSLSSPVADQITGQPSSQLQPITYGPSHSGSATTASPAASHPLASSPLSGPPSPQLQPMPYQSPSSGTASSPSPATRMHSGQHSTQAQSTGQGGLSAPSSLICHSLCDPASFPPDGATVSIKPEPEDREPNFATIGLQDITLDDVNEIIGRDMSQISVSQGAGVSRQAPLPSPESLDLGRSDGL
# UniProt Q9HA82: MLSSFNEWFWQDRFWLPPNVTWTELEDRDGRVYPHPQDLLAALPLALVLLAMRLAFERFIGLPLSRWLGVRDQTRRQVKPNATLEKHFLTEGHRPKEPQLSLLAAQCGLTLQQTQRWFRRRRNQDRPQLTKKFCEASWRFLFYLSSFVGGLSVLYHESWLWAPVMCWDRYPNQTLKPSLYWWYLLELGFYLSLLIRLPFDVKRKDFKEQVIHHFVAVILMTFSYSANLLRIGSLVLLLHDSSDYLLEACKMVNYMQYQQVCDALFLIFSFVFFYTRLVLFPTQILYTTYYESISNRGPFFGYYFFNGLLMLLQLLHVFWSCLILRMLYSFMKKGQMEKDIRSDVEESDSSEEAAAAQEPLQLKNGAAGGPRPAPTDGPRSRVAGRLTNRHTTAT
# Compound: Nc1ncnc2c1ncn2[C@@H]1O[C@H](COP(=O)(O)OP(=O)(O)OP(=O)(O)O)[C@@H](O)[C@H]1O [adenosine triphosphate]
# Assay: NP40-soluble protein abundance relative to vehicle (solubility fold change) (ratio); higher = more soluble protein in presence of ATP
# Outline: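 Values are fold changes against the detergent-processed vehicle, based on vsn-normalised intensities. Jurkat crude lysate was treated at eight concentrations from 0.1 to 10 mM (10 min at room temperature, then 3 min at 37 °C), solubilised with 0.8% NP40 and benzonase, ultracentrifuged and analysed by TMT-labelled LC-MS/MS over three independent experiments.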
Target,NP40-soluble protein abundance (concentration: 1mM),NP40-soluble protein abundance (concentration: 2mM),NP40-soluble protein abundance (concentration: 4mM),NP40-soluble protein abundance (concentration: 6mM),NP40-soluble protein abundance (concentration: 8mM),NP40-soluble protein abundance (concentration: 10mM)
L0R819 (UniProt Q9NWL6),0.912 ± 0.13,0.958 ± 0.13,0.956 ± 0.059,1.04 ± 0.22,0.892 ± 0.13,0.919 ± 0.096
H7BXF5 and related entries (UniProt Q9H0E3),1.01 ± 0.044,1.02 ± 0.02,1.01 ± 0.025,1.04 ± 0.078,1.02 ± 0.019,1.05 ± 0.034
H0YM31 and related entries (UniProt Q16822),0.993 ± 0.036,0.9965 ± 0.0068,0.998 ± 0.048,0.947 ± 0.03,0.96 ± 0.067,0.962 ± 0.028
H0Y362 and related entries (UniProt Q8NEW0),1.03 ± 0.066,1.02 ± 0.091,0.977 ± 0.066,0.912 ± 0.012,0.961 ± 0.03,0.983 ± 0.034
I3L3K7 and related entries (UniProt Q12968),1.05 ± 0.034,1.01 ± 0.056,1.01 ± 0.055,1.01 ± 0.039,0.975 ± 0.024,1.02 ± 0.048
H0YKC9 and related entries (UniProt Q9HA82),0.992 ± 0.021,0.97 ± 0.18,0.976 ± 0.12,0.959 ± 0.21,0.955 ± 0.2,0.993 ± 0.13

# From the supplement of paper PMC6411743
